These are yes or no findings as the source states them, for the method shown. Binding seen in cells or lysates may run through a third protein. Some binding calls cover weakened binding; strength is not graded here.
Target: wild type glycoprotein (GP) Ib-IX expressed on CHO cells (1b9) (UniProt P07359)
Assay: co-IP; 1b9 or S609A cells stimulated by ristocetin (1.25 mg/mL) with or without VWF (35 μg/mL), 30 min RT; lysed in Triton X-100 buffer pH 7.4; lysates precipitated with SZ2 (anti-GPIbα) and protein G sepharose 4B; blotted with SZ2 and anti-14-3-3ζ

The chains behind the UniProt entries cited, without tags or fusion partners. Where a name states a change or a piece, a line headed by the entry shows the natural chain unless it says otherwise.
UniProt P07359: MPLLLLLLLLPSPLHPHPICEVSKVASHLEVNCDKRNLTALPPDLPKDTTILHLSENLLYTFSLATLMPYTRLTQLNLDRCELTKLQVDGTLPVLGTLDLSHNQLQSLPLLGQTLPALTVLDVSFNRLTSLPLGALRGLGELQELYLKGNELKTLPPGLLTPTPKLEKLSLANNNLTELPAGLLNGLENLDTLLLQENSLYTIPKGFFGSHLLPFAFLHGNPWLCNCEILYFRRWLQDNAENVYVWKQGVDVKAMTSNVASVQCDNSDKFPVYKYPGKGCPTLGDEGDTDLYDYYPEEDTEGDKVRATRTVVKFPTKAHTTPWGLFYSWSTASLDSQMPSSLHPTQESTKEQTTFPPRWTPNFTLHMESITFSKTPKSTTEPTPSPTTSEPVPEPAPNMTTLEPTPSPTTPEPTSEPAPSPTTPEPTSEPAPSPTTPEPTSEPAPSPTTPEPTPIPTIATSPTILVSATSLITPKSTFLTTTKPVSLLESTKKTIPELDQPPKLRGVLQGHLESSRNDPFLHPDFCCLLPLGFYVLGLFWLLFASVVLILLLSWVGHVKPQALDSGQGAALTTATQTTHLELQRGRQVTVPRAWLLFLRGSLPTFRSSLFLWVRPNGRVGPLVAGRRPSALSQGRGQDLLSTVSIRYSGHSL
UniProt G3HKZ1: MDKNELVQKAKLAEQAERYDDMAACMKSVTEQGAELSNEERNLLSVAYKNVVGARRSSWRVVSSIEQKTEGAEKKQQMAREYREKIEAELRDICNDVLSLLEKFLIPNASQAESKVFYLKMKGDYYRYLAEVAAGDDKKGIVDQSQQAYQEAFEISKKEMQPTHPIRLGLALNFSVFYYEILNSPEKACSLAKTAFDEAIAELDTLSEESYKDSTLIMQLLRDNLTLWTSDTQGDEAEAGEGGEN

Substance: 14-3-3ζ (from UniProt G3HKZ1 1-245)
- binding: binds
